{"source": "the supplement of paper PMC11348887", "note": "Counter-ions that a name gives are not always drawn. The list shows a part of the results. Small differences around the control level are noise. Where a SMILES comes first, the peptide text is derived from it. [ ]: non-standard residue; d: D form.", "data": [{"test_system": "hPSC-derived cortical neurons (WA09)", "assay": "nucleus area z-score vs screen plate; higher = larger nuclei (more mature)", "details": "5 µM; treatment: days 7-14 after plating, readout day 21", "values": [{"smiles": "CC(C)C[C@@H]1NC(=O)[C@@H](C(C)C)NC(=O)[C@@H]2CCCN2C(=O)[C@@H](CC(=O)O)NC(=O)[C@@H](Cc2c[nH]c3ccccc23)NC1=O", "note": "(cyclo(L[dW][dD]P[dV]))", "nucleus area z-score": 0.154}, {"smiles": "Cc1cc(/C=C/C#N)cc(C)c1Nc1ccnc(Nc2ccc(C#N)cc2)n1", "note": "[Rilpivirine]", "nucleus area z-score": 0.839}, {"smiles": "COc1cc(C(=O)NC2CCCNC2)cc(OC)c1OC", "note": "(stereo not given) [Troxipide]", "nucleus area z-score": -0.0436}, {"smiles": "CN1CCN(C(c2ccccc2)c2ccccc2)CC1", "note": "[Cyclizine 2HCl]", "nucleus area z-score": 0.203}, {"smiles": "NCCOCCOCCNC(=O)Cc1ccc(Nc2nc(NCc3ccc(F)cc3)nc(NCC3CCCCC3)n2)cc1", "note": "[AP-III-a4 (ENOblock)]", "nucleus area z-score": -0.102}, {"smiles": "CO[C@H]1/C=C/O[C@@]2(C)Oc3c(C)c(O)c4c(c3C2=O)C2=NC3(CCN(CC(C)C)CC3)NC2=C(NC(=O)/C(C)=C\\C=C\\[C@H](C)[C@H](O)[C@@H](C)[C@@H](O)[C@@H](C)[C@H](OC(C)=O)[C@@H]1C)C4=O", "note": "[Rifabutin]", "nucleus area z-score": 0.335}, {"smiles": "O=C(Nc1cccc(Cl)c1)c1ccccn1", "nucleus area z-score": 0.347}, {"smiles": "O=C(NCCO[N+](=O)[O-])c1cccnc1", "note": "[Nicorandil]", "nucleus area z-score": 0.0955}, {"smiles": "O=C(O)P(=O)(O)O", "note": "[Foscarnet Sodium]", "nucleus area z-score": 0.00333}, {"smiles": "CN(C)CCOc1ccc(-c2nc(-c3ccncc3)c(-c3ccc4c(c3)CC/C4=N\\O)[nH]2)cc1", "nucleus area z-score": -14}, {"smiles": "CCNC(=O)[C@H]1O[C@@H](n2cnc3c(N)nc(NCCc4ccc(CCC(=O)O)cc4)nc32)[C@H](O)[C@@H]1O", "nucleus area z-score": -0.362}, {"smiles": "C/C(=C\\c1ccc(C(=O)O)cc1)c1ccc2c(c1)C(C)(C)CCC2(C)C", "note": "[TTNPB (Arotinoid Acid)]", "nucleus area z-score": -0.881}, {"smiles": "C=C[C@@]1(C)CC(=O)[C@]2(O)[C@@]3(C)[C@@H](O)CCC(C)(C)[C@@H]3[C@H](O)[C@H](OC(C)=O)[C@@]2(C)O1", "note": "[Forskolin]", "nucleus area z-score": 0.443}, {"smiles": "Cc1cc2c(F)c(Oc3ncnn4cc(OC[C@@H](C)O)c(C)c34)ccc2[nH]1", "nucleus area z-score": 0.115}, {"smiles": "Cc1cc(C)nc(SCC(=O)Nc2ncc(Cc3cccc4ccccc34)s2)n1", "nucleus area z-score": 0.269}, {"smiles": "CCOC(=O)n1ccn(C)c1=S", "note": "[Carbimazole]", "nucleus area z-score": -0.488}, {"smiles": "COc1nccc(-c2c(-c3ccc(F)cc3)ncn2C2CCC(O)CC2)n1", "note": "(stereo not given)", "nucleus area z-score": 1.88}, {"smiles": "Nc1nc(O)c2ncn(CCC(CO)CO)c2n1", "note": "[Penciclovir]", "nucleus area z-score": -0.569}, {"smiles": "CCCCCCCCCCCCCCCCn1cc[n+](Cc2ccccc2)c1C", "nucleus area z-score": -18.2}, {"smiles": "Cc1cc(=O)oc2cc(O)ccc12", "note": "[4-Methylumbelliferone (4-MU)]", "nucleus area z-score": 0.702}, {"smiles": "N[C@@H](Cc1cc(I)c(Oc2cc(I)c(O)c(I)c2)c(I)c1)C(=O)O", "note": "[L-Thyroxine]", "nucleus area z-score": 1.85}, {"smiles": "O=C(NCc1ccc(Oc2ccccc2)cc1)c1nc(-c2cc(Br)c(O)c(Br)c2)no1", "nucleus area z-score": 0.372}, {"smiles": "Nc1ccc(C(=O)O)cc1", "note": "[4-Aminobenzoic acid]", "nucleus area z-score": 0.904}, {"smiles": "CN1CCC(=C2c3ccccc3CC(=O)c3sccc32)CC1", "note": "[Ketotifen Fumarate]", "nucleus area z-score": -0.848}, {"smiles": "N[C@@H]1CN(c2c(F)cc3c(=O)c(C(=O)O)cn([C@@H]4C[C@@H]4F)c3c2Cl)CC12CC2", "note": "[Sitafloxacin Hydrate]", "nucleus area z-score": 0.22}, {"smiles": "C#Cc1cccc(Nc2ncnc3cc(OC)c(OCCCCCCC(=O)NO)cc23)c1", "nucleus area z-score": -8.53}, {"smiles": "CN1CCCC(n2nc(Cc3ccc(Cl)cc3)c3ccccc3c2=O)CC1", "note": "(stereo not given) [Azelastine HCl]", "nucleus area z-score": 0.0468}, {"smiles": "CCS(=O)(=O)N1CC(CC#N)(n2cc(-c3ncnc4[nH]ccc34)cn2)C1", "nucleus area z-score": 0.693}, {"smiles": "CC[C@H](CO)Nc1nc(NCc2ccccc2)c2ncn(C(C)C)c2n1", "note": "[Roscovitine (Seliciclib_CYC202)]", "nucleus area z-score": -0.543}, {"smiles": "CCN(CC)Cc1ccc2cc(COC(=O)Nc3ccc(C(=O)NO)cc3)ccc2c1", "note": "[Givinostat (ITF2357)]", "nucleus area z-score": -14.2}, {"smiles": "CC(C)(C)OC(=O)N[C@H]1CCCCC/C=C\\[C@@H]2C[C@@]2(C(=O)NS(=O)(=O)C2CC2)NC(=O)[C@@H]2C[C@@H](OC(=O)N3Cc4cccc(F)c4C3)CN2C1=O", "note": "[Danoprevir (ITMN-191)]", "nucleus area z-score": 0.147}, {"smiles": "COC1=CC(c2cc3ccccc3[nH]2)=N/C1=C\\c1[nH]c(C)cc1C", "note": "[Obatoclax Mesylate (GX15-070)]", "nucleus area z-score": -8.56}, {"smiles": "C=C1C(=O)O[C@H]2[C@H]1CC/C(C)=C/CC[C@@]1(C)O[C@@H]21", "note": "[(-)-Parthenolide]", "nucleus area z-score": -0.302}, {"smiles": "Cn1c(Nc2ccc(C(F)(F)F)cc2)nc2cc(Oc3ccnc(-c4ncc(C(F)(F)F)[nH]4)c3)ccc21", "nucleus area z-score": -2.01}, {"smiles": "Cc1ccc(C(=O)NCCCCCC(=O)Nc2ccccc2N)cc1", "nucleus area z-score": 0.169}, {"smiles": "CN(C)CCC=C1c2ccccc2CCc2ccccc21", "note": "[Amitriptyline HCl]", "nucleus area z-score": 0.847}, {"smiles": "Nc1nc(N)nc(-c2cc(Cl)ccc2Cl)n1", "note": "[Irsogladine]", "nucleus area z-score": 0.544}, {"smiles": "O=S(=O)(NCCNC/C=C/c1ccc(Br)cc1)c1cccc2cnccc12", "nucleus area z-score": -0.206}, {"smiles": "CS(=O)(=O)c1ccc(C(=O)Nc2ccc(Cl)c(-c3ccccn3)c2)c(Cl)c1", "note": "[Vismodegib (GDC-0449)]", "nucleus area z-score": 0.419}, {"smiles": "CN[C@@H](C)C(=O)N[C@H](C(=O)N1CCC[C@H]1c1nc(C(=O)c2ccc(F)cc2)cs1)C1CCCCC1", "nucleus area z-score": -0.291}]}]}
